These are yes or no findings as the source states them, for the method shown. Some entries that bind do so weakly or less than the wild type. Sequences can lack the tags named with a protein.
T1: Gnd1^I366R-V5 (S. cerevisiae) (UniProt P38720)
T1 sequence: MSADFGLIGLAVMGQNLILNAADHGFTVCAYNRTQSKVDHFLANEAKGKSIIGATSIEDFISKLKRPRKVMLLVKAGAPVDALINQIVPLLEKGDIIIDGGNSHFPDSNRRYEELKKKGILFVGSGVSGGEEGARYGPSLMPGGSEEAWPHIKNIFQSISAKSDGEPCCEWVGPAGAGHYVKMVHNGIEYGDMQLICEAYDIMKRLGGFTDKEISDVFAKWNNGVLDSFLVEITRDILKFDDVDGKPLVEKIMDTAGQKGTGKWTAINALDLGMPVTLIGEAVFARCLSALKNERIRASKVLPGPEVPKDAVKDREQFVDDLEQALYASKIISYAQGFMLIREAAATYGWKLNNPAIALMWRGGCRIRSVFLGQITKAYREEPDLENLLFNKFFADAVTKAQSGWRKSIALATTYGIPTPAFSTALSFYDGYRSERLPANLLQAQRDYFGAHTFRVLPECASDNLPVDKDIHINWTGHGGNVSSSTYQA

T2: Tsa1^WT-HA (peroxiredoxin Tsa1, single C-terminal HA tag at the endogenous locus) (S. cerevisiae) (UniProt P34760)
T2 sequence: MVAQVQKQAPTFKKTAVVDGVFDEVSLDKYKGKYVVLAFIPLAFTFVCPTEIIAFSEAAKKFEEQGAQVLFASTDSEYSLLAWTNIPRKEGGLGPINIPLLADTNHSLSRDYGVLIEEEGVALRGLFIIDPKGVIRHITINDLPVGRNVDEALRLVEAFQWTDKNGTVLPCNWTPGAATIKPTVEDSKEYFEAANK

T3: Cdc19-V5 (pyruvate kinase) (S. cerevisiae) (UniProt P00549)
T3 sequence: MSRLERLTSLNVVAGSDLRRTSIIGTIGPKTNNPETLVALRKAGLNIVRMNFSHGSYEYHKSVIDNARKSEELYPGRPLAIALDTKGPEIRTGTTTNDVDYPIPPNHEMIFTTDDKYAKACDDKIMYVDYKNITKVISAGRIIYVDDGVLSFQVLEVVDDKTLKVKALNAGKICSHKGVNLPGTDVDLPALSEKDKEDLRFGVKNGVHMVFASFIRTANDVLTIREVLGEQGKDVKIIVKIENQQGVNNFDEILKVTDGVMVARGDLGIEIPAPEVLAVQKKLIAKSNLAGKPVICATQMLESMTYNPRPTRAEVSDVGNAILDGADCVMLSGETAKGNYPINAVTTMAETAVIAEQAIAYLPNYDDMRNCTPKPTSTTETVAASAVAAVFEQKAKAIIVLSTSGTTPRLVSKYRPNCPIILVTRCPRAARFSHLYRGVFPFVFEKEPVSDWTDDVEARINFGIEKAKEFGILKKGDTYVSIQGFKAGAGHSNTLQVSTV

T4: Gnd1-V5 (6-phosphogluconate dehydrogenase) (S. cerevisiae) (UniProt P38720)
T4 sequence: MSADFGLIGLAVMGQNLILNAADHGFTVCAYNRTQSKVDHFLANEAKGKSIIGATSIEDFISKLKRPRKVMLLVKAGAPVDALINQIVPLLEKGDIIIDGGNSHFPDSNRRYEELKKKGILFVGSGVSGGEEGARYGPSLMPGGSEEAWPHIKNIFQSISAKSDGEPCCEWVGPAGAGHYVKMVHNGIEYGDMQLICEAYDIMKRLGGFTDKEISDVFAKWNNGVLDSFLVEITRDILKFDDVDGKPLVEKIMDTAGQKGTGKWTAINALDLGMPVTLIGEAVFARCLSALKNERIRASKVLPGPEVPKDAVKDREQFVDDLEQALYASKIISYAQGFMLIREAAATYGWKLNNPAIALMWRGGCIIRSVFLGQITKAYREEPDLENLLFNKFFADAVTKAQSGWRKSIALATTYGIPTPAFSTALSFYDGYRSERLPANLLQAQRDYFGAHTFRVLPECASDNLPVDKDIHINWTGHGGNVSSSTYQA


Legend:
[1] = target: T1, Gnd1^I366R-V5 (S. cerevisiae); experiment: non-reducing SDS-PAGE with immunoblot
[2] = target: T2, Tsa1^WT-HA (peroxiredoxin Tsa1, single C-terminal HA tag at the endogenous locus) (S. cerevisiae); experiment: non-reducing SDS-PAGE with immunoblot
[3] = target: T3, Cdc19-V5 (pyruvate kinase) (S. cerevisiae); experiment: two-dimensional SDS-PAGE
[4] = target: T4, Gnd1-V5 (6-phosphogluconate dehydrogenase) (S. cerevisiae); experiment: two-dimensional SDS-PAGE

Binder	binding [1]	binding [2]	binding [3]	binding [4]
Tsa1^WT-HA (peroxiredoxin Tsa1, single C-terminal HA tag at the endogenous locus) (protein, UniProt P34760 1-196) MVAQVQKQAPTFKKTAVVDGVFDEVSLDKYKGKYVVLAFIPLAFTFVCPTEIIAFSEAAKKFEEQGAQVLFASTDSEYSLLAWTNIPRKEGGLGPINIPLLADTNHSLSRDYGVLIEEEGVALRGLFIIDPKGVIRHITINDLPVGRNVDEALRLVEAFQWTDKNGTVLPCNWTPGAATIKPTVEDSKEYFEAANK	binds	binds	–	–
Tsa1^C171S-HA (resolving cysteine mutant) (protein, UniProt P34760 1-196) MVAQVQKQAPTFKKTAVVDGVFDEVSLDKYKGKYVVLAFIPLAFTFVCPTEIIAFSEAAKKFEEQGAQVLFASTDSEYSLLAWTNIPRKEGGLGPINIPLLADTNHSLSRDYGVLIEEEGVALRGLFIIDPKGVIRHITINDLPVGRNVDEALRLVEAFQWTDKNGTVLPSNWTPGAATIKPTVEDSKEYFEAANK	–	–	binds	binds

From publication doi:10.1101/2023.12.13.571451 (bioRxiv, 2023)
